Test results: publication PMC7819943, “Rice protein-binding microarrays: a tool to detect cis-acting elements near promoter regions in rice”
The list shows a part of the results.

Biological target: T1, OsSMF1 (Oryza sativa, UniProt Q6ZLB0 1-436)
T1 sequence: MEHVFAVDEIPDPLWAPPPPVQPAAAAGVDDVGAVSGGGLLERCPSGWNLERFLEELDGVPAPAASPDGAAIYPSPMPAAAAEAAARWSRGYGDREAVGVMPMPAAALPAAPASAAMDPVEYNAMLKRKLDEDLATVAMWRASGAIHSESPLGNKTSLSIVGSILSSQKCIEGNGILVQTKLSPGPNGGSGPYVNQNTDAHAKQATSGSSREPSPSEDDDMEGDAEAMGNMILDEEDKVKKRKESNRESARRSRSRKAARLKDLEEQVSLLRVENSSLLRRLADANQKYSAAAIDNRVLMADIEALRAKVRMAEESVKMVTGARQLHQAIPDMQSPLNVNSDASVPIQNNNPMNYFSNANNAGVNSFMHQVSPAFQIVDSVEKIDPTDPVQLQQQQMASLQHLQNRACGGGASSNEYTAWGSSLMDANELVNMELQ
Assay: protein-binding microarray (RPBM); PBS, 2% BSA, 51.3 ng/ul salmon testes DNA, 50 uM zinc acetate, 200 nM TF, 25 C, 1 h; high values mean tight binding
Conditions: protein: recombinant; tags: N-terminal polyhistidine and DsRed monomer fusion (pET32a); chain copies: 2; label: CyDye5-dUTP incorporated in the synthesized complementary strand; 3' TTTTT single-stranded linker to array surface; dsDNA, one strand shown
Summary of the method: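 The binding signal is fluorescence intensity per array feature (arbitrary units). Readings came from an Axon 4000B scanner after a washed, 2% BSA-blocked, double-stranded custom Agilent array had been incubated for 1 h at 25 °C with 200 nM protein and 50 µM zinc acetate. The protein was a Ni–NTA-purified transcription factor fused N-terminally to polyhistidine and DsRed, expressed in E. coli BL21-CodonPlus.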

| Sequence | binding signal |
| --- | --- |
| GCGCTGGGAGTAGGAGCGCCGCCTGCATCTCGCTGATTGTCGGAGTCACCTAGTGCAG | 3400 fluorescence intensity (a.u.) |
| GATTCCCAAAGCTAGGTGGGCCCCACCTGTCAGGGTCACGCGGAGTCACCTAGTGCAG | 3600 fluorescence intensity (a.u.) |
| CTCCCCACTCACTGCCAGGTGGGCCCACCTTGTCGGATTACGGAGTCACCTAGTGCAG | 3530 fluorescence intensity (a.u.) |
| TCAAGAATTTGTGTTGGAAACTGATGCCTATGACAGGGGTCGGAGTCACCTAGTGCAG | 3440 fluorescence intensity (a.u.) |
| GGAGATGATGATTTACCTGTGATCTGTTTGGTCCTTGAGCCGGAGTCACCTAGTGCAG | 3360 fluorescence intensity (a.u.) |
| AAGGGAAATAAGCTGATCTGGAAAGAAAAGAGAACATCAGCGGAGTCACCTAGTGCAG | 4300 fluorescence intensity (a.u.) |
| AGGAACGCGCGGATCGATGACGTGGCGCTGATCCTGCCTACGGAGTCACCTAGTGCAG | 11600 fluorescence intensity (a.u.) |
| TAAAATAGTTTTAAAACTTTAAGTTGAAAGTAAATACTTTCGGAGTCACCTAGTGCAG | 27900 fluorescence intensity (a.u.) |
| GAACTGCTCGTCACGTAATCAAATCGTGTCCCATCACTTGCGGAGTCACCTAGTGCAG | 5350 fluorescence intensity (a.u.) |
| CAACTACCGACCTCACTTCCACGCCCACCGTCGTCGACTCCGGAGTCACCTAGTGCAG | 4630 fluorescence intensity (a.u.) |
| TTTGTGTCACTTTTAAACATGTTCACGTCATTATTTTAGTCGGAGTCACCTAGTGCAG | 5860 fluorescence intensity (a.u.) |
| GCCTAGGCCCAAATTCAGGGCCCACCAGGCCCACGTGTCTCGGAGTCACCTAGTGCAG | 4670 fluorescence intensity (a.u.) |
| AGGGAAAGATTCTAACAAATAAAGAAAAGAACAATGCAGCCGGAGTCACCTAGTGCAG | 3260 fluorescence intensity (a.u.) |
| TTAGAAAACCTTCCGGGACTAATGACATGGCAATCTCACCCGGAGTCACCTAGTGCAG | 5090 fluorescence intensity (a.u.) |
| GGCTGCGCGGGTTTCAATAGCTGACAGTGTGTACGCTTCTCGGAGTCACCTAGTGCAG | 3920 fluorescence intensity (a.u.) |
| ACCGCATCCTAGGGGTAAACACGTCATTCTATCCCCACCCCGGAGTCACCTAGTGCAG | 18300 fluorescence intensity (a.u.) |
| GGTCGGCCAATGGGGACTCGCCACGTGTGCGCCTCGCCACCGGAGTCACCTAGTGCAG | 24200 fluorescence intensity (a.u.) |
| ACTACTTGAGAGGGACGTGAGTGCGTGACGGCGCCAATGCCGGAGTCACCTAGTGCAG | 4110 fluorescence intensity (a.u.) |
| CATTCTTTGTCCATTTATTGACGTGCATGACAACACACTCCGGAGTCACCTAGTGCAG | 3470 fluorescence intensity (a.u.) |
| AGAGTTTGGTCAAAGAAAAGGTAAGTTCCTCCATCCACGTCGGAGTCACCTAGTGCAG | 4060 fluorescence intensity (a.u.) |
| CCGTACTCATAAAGGAAGTCGTTTTGGACAGCATCACGGTCGGAGTCACCTAGTGCAG | 4170 fluorescence intensity (a.u.) |

As entered above.
binding signal with GGTCGGCCAATGGGGACTCGCCACGTGTGCGCCTCGCCACCGGAGTCACCTAGTGCAG reads 24200 fluorescence intensity (a.u.)
binding signal with CTCCCCACTCACTGCCAGGTGGGCCCACCTTGTCGGATTACGGAGTCACCTAGTGCAG reads 3530 fluorescence intensity (a.u.)

(cont.)

| Sequence | binding signal |
| --- | --- |
| TGCCCGTGCCAGCCGTCCATTGGCGCGCGGGCGACGTGGCCGGAGTCACCTAGTGCAG | 3950 fluorescence intensity (a.u.) |
| GGTGACACACTTCTGATTGTGCACATATGTGGCATTCTGTCGGAGTCACCTAGTGCAG | 6000 fluorescence intensity (a.u.) |
| CTCATCAGCAACTTGTGACATAATCTGTGCATTGCGTCCACGGAGTCACCTAGTGCAG | 3970 fluorescence intensity (a.u.) |
| CAAACTGTACATGTTGGTGGCGTCGCGTCATGTCACCAAACGGAGTCACCTAGTGCAG | 4020 fluorescence intensity (a.u.) |
| ATCGATGACGGATGACTCACACTGCTGACAAAAGAGCAGACGGAGTCACCTAGTGCAG | 7740 fluorescence intensity (a.u.) |
| CCGTGAGACGTGGACACGTGTCACACGTCTCTCTCTCTCTCGGAGTCACCTAGTGCAG | 22000 fluorescence intensity (a.u.) |
| GCGCCAGTTGACATGGCGCTGAGGTGTCTAAATTCAGCGCCGGAGTCACCTAGTGCAG | 10700 fluorescence intensity (a.u.) |
| CGCCACTCGCCTCGCCACGACGATGTCCCGTGGCAGGTGCCGGAGTCACCTAGTGCAG | 4710 fluorescence intensity (a.u.) |
| GCCTACTTGGTAAGGTAATAAAACCATCACACTAGTCGTACGGAGTCACCTAGTGCAG | 5990 fluorescence intensity (a.u.) |
| GGAGAGAGAGGAGGAAGAAGAGGCGAGGATGACAAGTGGGCGGAGTCACCTAGTGCAG | 3370 fluorescence intensity (a.u.) |
| ATGCATGGTATGTCACGTTGTGACTTGCCTACACTAAAGCCGGAGTCACCTAGTGCAG | 4520 fluorescence intensity (a.u.) |
| TTGGAAAGCTTCACTTTAGCATCTTACGCTGGACAGCATCCGGAGTCACCTAGTGCAG | 3190 fluorescence intensity (a.u.) |
| TCAAATGACGTATGCATTTCCCGTTGGGTATAGGGACCACCGGAGTCACCTAGTGCAG | 8330 fluorescence intensity (a.u.) |
| AATGCCAAATATACAAACCAATCATATCCACACACACACACGGAGTCACCTAGTGCAG | 3280 fluorescence intensity (a.u.) |
| ATCGTGATGCAAATGTCGAACTTGGAAGATATCCATGGATCGGAGTCACCTAGTGCAG | 39000 fluorescence intensity (a.u.) |
| GCCGTCTCCAAGCGAAATACTCCTACTCCGTCGACTTATCCGGAGTCACCTAGTGCAG | 30100 fluorescence intensity (a.u.) |
| AGACACCACCTACCGCGCGCGTCGCGTACTCGCGTGCCCACGGAGTCACCTAGTGCAG | 4240 fluorescence intensity (a.u.) |
| GAGGCGGCCGTGGACCGCCAAGGACGCAAGGTGGCGAGGCCGGAGTCACCTAGTGCAG | 16900 fluorescence intensity (a.u.) |
| CGCCGTCATCCTTCTTTCCACGCCATCGCCGTCGCCGATTCGGAGTCACCTAGTGCAG | 4340 fluorescence intensity (a.u.) |
| GTCTTTCTTCAATTGTTATTATTGTCATAAATCAGGAGAACGGAGTCACCTAGTGCAG | 22600 fluorescence intensity (a.u.) |
| GATGTTTCTGCTGCTGCAGTCATTGGCATCCAGTGCTTTCCGGAGTCACCTAGTGCAG | 3180 fluorescence intensity (a.u.) |
